No constants are given. Whether binding was seen depends on the method and setting. Binding seen in cells or lysates may run through a third protein. Some entries that bind do so weakly or less than the wild type.
What was measured:
[1] = biological target: endogenous GluA2 (mouse brain) (mouse (endogenous in P0 brain)) (UniProt P23819); assay: co-IP; whole-brain lysate of P0 mouse (1% Triton X-100 lysis buffer, sonicated); 2 mg total protein with 4 ug mouse anti-GluA1 (RH95) or anti-GluA2 (6C4) overnight at 4 C, protein A/G agarose; endogenous NSG2 detected
[2] = biological target: endogenous GluA1 (mouse brain) (mouse (endogenous in P0 brain)) (UniProt P23818); assay: as above

Chains of the proteins cited; added tags and fusions are not shown. Residues count along the entry.
UniProt P23819, residues 25-883: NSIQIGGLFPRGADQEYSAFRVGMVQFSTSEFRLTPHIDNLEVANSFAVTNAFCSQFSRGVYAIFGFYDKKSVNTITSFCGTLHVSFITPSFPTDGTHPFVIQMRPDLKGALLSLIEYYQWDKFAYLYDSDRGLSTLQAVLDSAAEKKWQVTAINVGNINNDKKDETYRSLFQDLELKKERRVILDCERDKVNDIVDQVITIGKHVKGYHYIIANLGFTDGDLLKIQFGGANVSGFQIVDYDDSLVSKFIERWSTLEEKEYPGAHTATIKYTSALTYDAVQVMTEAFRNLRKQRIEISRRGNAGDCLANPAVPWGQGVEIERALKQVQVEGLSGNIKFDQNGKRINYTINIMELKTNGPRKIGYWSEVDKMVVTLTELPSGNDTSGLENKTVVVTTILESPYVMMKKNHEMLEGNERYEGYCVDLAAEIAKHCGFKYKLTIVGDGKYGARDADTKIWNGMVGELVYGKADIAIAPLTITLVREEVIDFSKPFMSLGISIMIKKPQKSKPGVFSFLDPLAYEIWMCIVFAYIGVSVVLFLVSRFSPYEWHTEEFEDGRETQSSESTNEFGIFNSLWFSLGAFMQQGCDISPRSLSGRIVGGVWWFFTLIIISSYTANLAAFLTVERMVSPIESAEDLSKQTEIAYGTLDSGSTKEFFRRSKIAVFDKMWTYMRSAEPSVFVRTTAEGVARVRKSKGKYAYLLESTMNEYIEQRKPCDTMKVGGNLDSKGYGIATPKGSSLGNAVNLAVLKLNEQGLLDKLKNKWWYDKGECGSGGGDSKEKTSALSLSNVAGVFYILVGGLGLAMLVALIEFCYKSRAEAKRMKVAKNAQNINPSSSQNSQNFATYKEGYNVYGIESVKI
UniProt P23818, residues 19-907: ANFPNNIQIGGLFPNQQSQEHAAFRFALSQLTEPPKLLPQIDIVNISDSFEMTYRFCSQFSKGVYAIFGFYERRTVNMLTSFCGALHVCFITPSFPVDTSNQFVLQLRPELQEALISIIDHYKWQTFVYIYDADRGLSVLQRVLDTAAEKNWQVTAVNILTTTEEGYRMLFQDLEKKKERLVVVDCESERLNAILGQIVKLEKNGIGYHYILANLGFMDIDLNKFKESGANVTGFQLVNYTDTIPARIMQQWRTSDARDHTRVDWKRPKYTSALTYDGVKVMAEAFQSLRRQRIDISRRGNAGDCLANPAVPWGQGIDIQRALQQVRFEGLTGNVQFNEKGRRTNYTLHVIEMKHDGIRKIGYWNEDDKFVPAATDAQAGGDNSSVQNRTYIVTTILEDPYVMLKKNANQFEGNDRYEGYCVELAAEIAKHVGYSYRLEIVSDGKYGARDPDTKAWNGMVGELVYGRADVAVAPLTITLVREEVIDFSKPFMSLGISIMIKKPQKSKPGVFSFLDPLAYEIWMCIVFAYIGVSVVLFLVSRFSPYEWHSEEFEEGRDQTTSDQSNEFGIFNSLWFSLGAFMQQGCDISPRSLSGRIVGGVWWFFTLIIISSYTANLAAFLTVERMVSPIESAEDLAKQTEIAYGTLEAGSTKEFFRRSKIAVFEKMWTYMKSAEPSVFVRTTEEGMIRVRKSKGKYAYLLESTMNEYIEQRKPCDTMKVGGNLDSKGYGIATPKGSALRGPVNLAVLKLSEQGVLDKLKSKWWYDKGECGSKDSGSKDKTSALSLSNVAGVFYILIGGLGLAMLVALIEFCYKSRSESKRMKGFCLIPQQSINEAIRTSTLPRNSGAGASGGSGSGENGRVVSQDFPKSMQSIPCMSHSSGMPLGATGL

- binding [1]: binds
- binding [2]: binds
B1: endogenous NSG2 (mouse brain) (protein, UniProt P47759 1-171)
chain: MVKLNSNPGEKGAKPPSVEDGFQTVPLITPLEVNHLQLAAPEKVIVKTRTEYQPEQRNKGKFRVPKIAEFTVTILVSLALAFLACIVFLVVYKAFTYDHSCPEGFVYKHKRCIPASLDAYYSSQDPSSRSRFYTVISHYSVAKQSTARAIGPWLSAAAVIHEPKPPKTQGH

Reference: article PMC6345199
